In the assay the target is T1, LAMP1-APEX2 (UniProt P11279).
T1 sequence: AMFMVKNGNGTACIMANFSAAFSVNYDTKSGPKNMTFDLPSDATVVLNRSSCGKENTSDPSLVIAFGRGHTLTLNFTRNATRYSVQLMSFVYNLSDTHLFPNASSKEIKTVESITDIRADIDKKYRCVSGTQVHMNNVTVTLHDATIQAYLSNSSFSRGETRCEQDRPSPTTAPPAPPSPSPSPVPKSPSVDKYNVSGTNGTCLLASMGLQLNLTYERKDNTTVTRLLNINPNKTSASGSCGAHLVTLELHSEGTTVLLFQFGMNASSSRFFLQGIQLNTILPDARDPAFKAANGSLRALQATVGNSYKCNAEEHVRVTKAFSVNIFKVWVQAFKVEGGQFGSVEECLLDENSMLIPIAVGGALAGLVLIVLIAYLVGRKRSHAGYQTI
Nature of the assay: proximity labelling.

Results are given in words; binding and its absence hold for the method and conditions named. Binding seen in cells or lysates may run through a third protein. A yes stands for co-enrichment or nearness to the bait. Other partners may have been found.

B1: BLOC1S1 (protein, UniProt P78537 1-153)
chain: MAPGSRGERSSFRSRRGPGVPSPQPDVTMLSRLLKEHQAKQNERKELQEKRRREAITAATCLTEALVDHLNVGVAQAYMNQRKLDHEVKTLQVQAAQFAKQTGQWIGMVENFNQALKEIGDVENWARSIELDMRTIATALEYVYKGQLQSAPS
Take B1: the binding result is listed as “binds”.

B2: TSC1 (protein, UniProt Q92574 1-1164)
chain: MAQQANVGELLAMLDSPMLGVRDDVTAVFKENLNSDRGPMLVNTLVDYYLETSSQPALHILTTLQEPHDKHLLDRINEYVGKAATRLSILSLLGHVIRLQPSWKHKLSQAPLLPSLLKCLKMDTDVVVLTTGVLVLITMLPMIPQSGKQHLLDFFDIFGRLSSWCLKKPGHVAEVYLVHLHASVYALFHRLYGMYPCNFVSFLRSHYSMKENLETFEEVVKPMMEHVRIHPELVTGSKDHELDPRRWKRLETHDVVIECAKISLDPTEASYEDGYSVSHQISARFPHRSADVTTSPYADTQNSYGCATSTPYSTSRLMLLNMPGQLPQTLSSPSTRLITEPPQATLWSPSMVCGMTTPPTSPGNVPPDLSHPYSKVFGTTAGGKGTPLGTPATSPPPAPLCHSDDYVHISLPQATVTPPRKEERMDSARPCLHRQHHLLNDRGSEEPPGSKGSVTLSDLPGFLGDLASEEDSIEKDKEEAAISRELSEITTAEAEPVVPRGGFDSPFYRDSLPGSQRKTHSAASSSQGASVNPEPLHSSLDKLGPDTPKQAFTPIDLPCGSADESPAGDRECQTSLETSIFTPSPCKIPPPTRVGFGSGQPPPYDHLFEVALPKTAHHFVIRKTEELLKKAKGNTEEDGVPSTSPMEVLDRLIQQGADAHSKELNKLPLPSKSVDWTHFGGSPPSDEIRTLRDQLLLLHNQLLYERFKRQQHALRNRRLLRKVIKAAALEEHNAAMKDQLKLQEKDIQMWKVSLQKEQARYNQLQEQRDTMVTKLHSQIRQLQHDREEFYNQSQELQTKLEDCRNMIAELRIELKKANNKVCHTELLLSQVSQKLSNSESVQQQMEFLNRQLLVLGEVNELYLEQLQNKHSDTTKEVEMMKAAYRKELEKNRSHVLQQTQRLDTSQKRILELESHLAKKDHLLLEQKKYLEDVKLQARGQLQAAESRYEAQKRITQVFELEILDLYGRLEKDGLLKKLEEEKAEAAEAAEERLDCCNDGCSDSMVGHNEEASGHNGETKTPRPSSARGSSGSRGGGGSSSSSSELSTPEKPPHQRAGPFSSRWETTMGEASASIPTTVGSLPSSKSFLGMKARELFRNKSESQCDEDGMTSSLSESLKTELGKDLGVEAKIPLNLDGPHPSPPTPDSVGQLHIMDYNETHHEHS
B2: the binding result is given as “binds”.

The record behind these values is doi:10.1101/2022.12.14.520480.
